For one substance, step yield results are on record in patent US20040043937A1 (priority 2000, published 2004).

The data set is described as follows: general procedure: peptide synthesis; HATU/collidine. Particulars: late stage modification step.

As for Gua-Mab-azaGly-Asp-Hda-εAhx-εAhx-Aca, the step yield turned out to be 95%.
